Data published in PMC11187247.
Results are given in words; binding and its absence hold for the method and conditions named. In cells and extracts the contact can be indirect. Some results given as binding are weak or reduced against the parent protein; the word gives no strength.

Chains of the proteins cited; added tags and fusions are not shown.
UniProt Q96AC1: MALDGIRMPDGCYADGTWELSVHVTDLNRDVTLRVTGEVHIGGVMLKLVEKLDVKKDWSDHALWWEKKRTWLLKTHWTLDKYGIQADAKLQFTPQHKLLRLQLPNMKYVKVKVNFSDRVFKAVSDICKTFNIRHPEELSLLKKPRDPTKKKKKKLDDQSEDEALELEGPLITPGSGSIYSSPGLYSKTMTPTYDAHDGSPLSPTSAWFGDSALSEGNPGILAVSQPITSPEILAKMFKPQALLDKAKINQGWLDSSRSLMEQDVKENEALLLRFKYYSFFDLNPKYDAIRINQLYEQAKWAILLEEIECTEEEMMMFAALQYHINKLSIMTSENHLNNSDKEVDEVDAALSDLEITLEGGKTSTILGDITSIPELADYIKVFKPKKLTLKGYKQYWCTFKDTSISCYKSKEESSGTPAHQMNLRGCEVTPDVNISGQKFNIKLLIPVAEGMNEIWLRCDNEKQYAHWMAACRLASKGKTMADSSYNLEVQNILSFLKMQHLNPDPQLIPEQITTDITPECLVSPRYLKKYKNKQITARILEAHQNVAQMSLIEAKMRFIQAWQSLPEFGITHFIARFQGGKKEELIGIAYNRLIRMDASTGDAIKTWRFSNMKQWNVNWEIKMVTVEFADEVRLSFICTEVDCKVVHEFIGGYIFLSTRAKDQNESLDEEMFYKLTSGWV

What was measured:
Assay in all cases: pull-down; biotinylated peptides on streptavidin Dynabeads M-280; 200 μg protein extracts of HUVEC in PBST, overnight at 4°C under shaking; western blot with anti-KINDLIN2; only the target purified
[1] = target: T1, Biotinylated Integrin beta 1 peptide pep_Ac-K794 (human)
T1 sequence (peptide, biotin on the N-terminus; acetyl-lysine at K794): GSAKSAVTTVVNPKYEGK

[2] = target: T2, Biotinylated Integrin beta 1 peptide pep_K794Q (human)
T2 sequence (peptide, biotin on the N-terminus): GSAKSAVTTVVNPQYEGK

[3] = target: T3, Biotinylated Integrin beta 1 peptide pep_K794R (human)
T3 sequence (peptide, biotin on the N-terminus): GSAKSAVTTVVNPRYEGK

binding [1]: binds | binding [2]: binds | binding [3]: binds
Substance: KINDLIN2 (endogenous, HUVEC) (from UniProt Q96AC1 1-680)
